In publication PMC6683012:
These are yes or no findings as the source states them, for the method shown. Binding seen in cells or lysates may run through a third protein. A yes stands for co-enrichment or nearness to the bait. Other partners may have been found. Tags and fused reporters may be left off the sequences shown. Blank lines part the entries; values can stand above or below the binder they belong to.

Columns and labels:
[1] = molecular target: T1, QSK1-GFP (Arabidopsis) (UniProt Q9M8T0); assay: affinity purification with mass spectrometry; single-step pull-down of GFP-tagged bait from 100 ug root microsomal proteins on anti-GFP agarose beads (Chromotek), 2 h at 4 C; washed with 10 mM Tris/HCl pH 7.5, 150 mM NaCl, 0.5 mM EDTA, 0.01% IGEPAL; eluted with 6 M urea, 2 M thiourea; LC-MS/MS with label-free quantitation; roots sucrose-starved or resupplied with 30 mM sucrose for 3 min; GFP-only pulldown as control
T1 sequence: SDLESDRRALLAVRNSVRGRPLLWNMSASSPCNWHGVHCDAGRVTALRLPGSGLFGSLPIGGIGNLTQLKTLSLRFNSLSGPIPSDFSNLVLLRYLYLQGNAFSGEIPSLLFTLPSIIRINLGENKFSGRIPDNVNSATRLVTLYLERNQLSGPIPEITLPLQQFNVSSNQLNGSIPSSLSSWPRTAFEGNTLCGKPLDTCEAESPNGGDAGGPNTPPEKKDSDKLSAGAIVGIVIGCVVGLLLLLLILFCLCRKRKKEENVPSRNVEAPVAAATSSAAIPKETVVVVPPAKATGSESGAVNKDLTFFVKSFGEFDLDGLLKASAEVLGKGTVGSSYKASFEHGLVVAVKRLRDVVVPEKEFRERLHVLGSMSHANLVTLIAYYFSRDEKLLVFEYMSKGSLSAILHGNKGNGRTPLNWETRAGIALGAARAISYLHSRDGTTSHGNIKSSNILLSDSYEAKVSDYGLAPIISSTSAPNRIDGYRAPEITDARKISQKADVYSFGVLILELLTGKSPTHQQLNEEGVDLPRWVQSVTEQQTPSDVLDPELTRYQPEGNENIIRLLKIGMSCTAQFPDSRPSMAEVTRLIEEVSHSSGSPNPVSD

[2] = molecular target: T2, SIRK1-GFP (Sucrose-induced receptor kinase 1 fused to GFP) (Arabidopsis) (UniProt Q0WR59); assay: as above
T2 sequence: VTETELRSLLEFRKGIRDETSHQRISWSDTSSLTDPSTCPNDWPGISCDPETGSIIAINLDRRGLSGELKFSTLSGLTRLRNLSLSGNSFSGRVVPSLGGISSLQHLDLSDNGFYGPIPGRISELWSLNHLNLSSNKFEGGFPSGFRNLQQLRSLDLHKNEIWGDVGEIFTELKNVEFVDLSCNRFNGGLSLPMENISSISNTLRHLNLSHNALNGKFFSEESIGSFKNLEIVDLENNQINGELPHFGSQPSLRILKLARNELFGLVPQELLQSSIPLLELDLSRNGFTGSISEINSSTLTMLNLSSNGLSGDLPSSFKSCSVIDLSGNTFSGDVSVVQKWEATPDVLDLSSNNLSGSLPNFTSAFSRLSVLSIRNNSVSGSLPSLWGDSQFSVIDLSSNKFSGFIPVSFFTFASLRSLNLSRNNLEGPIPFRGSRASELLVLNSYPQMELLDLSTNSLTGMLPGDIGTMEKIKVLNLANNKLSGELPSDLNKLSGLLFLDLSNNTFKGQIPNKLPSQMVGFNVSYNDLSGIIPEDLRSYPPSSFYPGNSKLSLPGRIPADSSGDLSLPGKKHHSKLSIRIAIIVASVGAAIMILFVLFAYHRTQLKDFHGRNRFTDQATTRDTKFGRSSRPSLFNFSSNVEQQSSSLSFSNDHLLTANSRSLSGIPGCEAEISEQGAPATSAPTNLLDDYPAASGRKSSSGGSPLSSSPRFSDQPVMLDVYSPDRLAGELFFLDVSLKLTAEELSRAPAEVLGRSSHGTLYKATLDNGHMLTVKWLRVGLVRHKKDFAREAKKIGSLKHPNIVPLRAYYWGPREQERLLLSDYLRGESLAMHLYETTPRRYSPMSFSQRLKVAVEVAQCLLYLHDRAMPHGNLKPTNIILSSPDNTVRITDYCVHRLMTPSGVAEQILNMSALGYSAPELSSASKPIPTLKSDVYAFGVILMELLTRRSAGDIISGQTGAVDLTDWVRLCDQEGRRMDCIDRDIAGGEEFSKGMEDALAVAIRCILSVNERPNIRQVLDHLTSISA

B1: SIRK1 (AT5G10020), endogenous (receptor, UniProt Q0WR59 22-1048)
chain: T2 sequence
- binding [1]: binds

B2: QSK1 (AT3G02880), endogenous (receptor, UniProt Q9M8T0 24-627)
chain: T1 sequence
- binding [2]: binds

Second part, the binder after the results:

- binding [2]: binds
B3: Calcium ATPase ACA8 (protein, UniProt Q9LF79 1-1074)
chain: MTSLLKSSPGRRRGGDVESGKSEHADSDSDTFYIPSKNASIERLQQWRKAALVLNASRRFRYTLDLKKEQETREMRQKIRSHAHALLAANRFMDMGRESGVEKTTGPATPAGDFGITPEQLVIMSKDHNSGALEQYGGTQGLANLLKTNPEKGISGDDDDLLKRKTIYGSNTYPRKKGKGFLRFLWDACHDLTLIILMVAAVASLALGIKTEGIKEGWYDGGSIAFAVILVIVVTAVSDYKQSLQFQNLNDEKRNIHLEVLRGGRRVEISIYDIVVGDVIPLNIGNQVPADGVLISGHSLALDESSMTGESKIVNKDANKDPFLMSGCKVADGNGSMLVTGVGVNTEWGLLMASISEDNGEETPLQVRLNGVATFIGSIGLAVAAAVLVILLTRYFTGHTKDNNGGPQFVKGKTKVGHVIDDVVKVLTVAVTIVVVAVPEGLPLAVTLTLAYSMRKMMADKALVRRLSACETMGSATTICSDKTGTLTLNQMTVVESYAGGKKTDTEQLPATITSLVVEGISQNTTGSIFVPEGGGDLEYSGSPTEKAILGWGVKLGMNFETARSQSSILHAFPFNSEKKRGGVAVKTADGEVHVHWKGASEIVLASCRSYIDEDGNVAPMTDDKASFFKNGINDMAGRTLRCVALAFRTYEAEKVPTGEELSKWVLPEDDLILLAIVGIKDPCRPGVKDSVVLCQNAGVKVRMVTGDNVQTARAIALECGILSSDADLSEPTLIEGKSFREMTDAERDKISDKISVMGRSSPNDKLLLVQSLRRQGHVVAVTGDGTNDAPALHEADIGLAMGIAGTEVAKESSDIIILDDNFASVVKVVRWGRSVYANIQKFIQFQLTVNVAALVINVVAAISSGDVPLTAVQLLWVNLIMDTLGALALATEPPTDHLMGRPPVGRKEPLITNIMWRNLLIQAIYQVSVLLTLNFRGISILGLEHEVHEHATRVKNTIIFNAFVLCQAFNEFNARKPDEKNIFKGVIKNRLFMGIIVITLVLQVIIVEFLGKFASTTKLNWKQWLICVGIGVISWPLALVGKFIPVPAAPISNKLKVLKFWGKKKNSSGEGSL

- binding [2]: binds
B4: QSK2 (AT5G16590), endogenous (receptor, UniProt Q9FMD7 24-625)
chain: DLEADRRALIALRDGVHGRPLLWNLTAPPCTWGGVQCESGRVTALRLPGVGLSGPLPIAIGNLTKLETLSFRFNALNGPLPPDFANLTLLRYLYLQGNAFSGEIPSFLFTLPNIIRINLAQNNFLGRIPDNVNSATRLATLYLQDNQLTGPIPEIKIKLQQFNVSSNQLNGSIPDPLSGMPKTAFLGNLLCGKPLDACPVNGTGNGTVTPGGKGKSDKLSAGAIVGIVIGCFVLLLVLFLIVFCLCRKKKKEQVVQSRSIEAAPVPTSSAAVAKESNGPPAVVANGASENGVSKNPAAVSKDLTFFVKSFGEFDLDGLLKASAEVLGKGTFGSSYKASFDHGLVVAVKRLRDVVVPEKEFREKLQVLGSISHANLVTLIAYYFSRDEKLVVFEYMSRGSLSALLHGNKGSGRSPLNWETRANIALGAARAISYLHSRDATTSHGNIKSSNILLSESFEAKVSDYCLAPMISPTSTPNRIDGYRAPEVTDARKISQKADVYSFGVLILELLTGKSPTHQQLHEEGVDLPRWVSSITEQQSPSDVFDPELTRYQSDSNENMIRLLNIGISCTTQYPDSRPTMPEVTRLIEEVSRSPASPGPLSD
